Laboratory results taken from PubChem BioAssay AID1508600 (Functional Genomics Laboratory (NCATS/FGL), 2020).
The campaign covered roughly 53,000 sequences. About 3,700 (7%) were called active.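 Rule for the calls: active = gene knockdowns whose robust z-score for IL-1 alpha signal is at least 2 or at most -2, so actives lie on both sides; inactive = the rest.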 The list shows a part of the results.

Assay: Components of the Cytosolic LPS Sensing Pathway: Gene Identification via Genome-wide siRNA Screen;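 note: robust z of the log signal after scaling to non-targeting control siRNA wells of the plate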
Settings: RAW264.7 macrophages, IL-1a HTRF, actives lie on both sides, screened at 100 nM (by protocol), cells primed 5 h with Pam3CSK4 first
Summary of the method: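 RAW264.7 mouse macrophages reverse-transfected with single siRNAs (100 nM final) for 48h, primed with Pam3CSK4 for 5 hours, then transfected with LipidA for 24 hour. Supernatant IL-1a read by HTRF; values normalized to negative-control median, log-transformed robust z-scores.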

Row | Sequence | z-score
1 | GGAGGACAAUGAGGACGAUTT against Chrac1 | active: 2.1
2 | GGCUUGAGGCCUUUCUCUATT against Zfpl1 | inactive: 1.92
3 | GGCAACACGAUGCAGCAGUTT against Fam50a | inactive: -0.36
4 | GGUAAAAGCUCAGAUUCACTT against Ncoa4 | inactive: 0.241
5 | GGACUUGGUGACUUACUUCTT against Smpdl3b | inactive: -1.42
6 | CCAUGUCUAUUCAAAAAGCTT against Wdr6 | inactive: 0.452
7 | CCCGCUACAACAACCUGAUTT against Chrnb4 | inactive: -0.95
8 | GGGCAACGUAUUCACAUUATT against Manbal | active: 2.86
9 | GGUAGAAGUGAAAUAUUCUTT against Ndufaf1 | inactive: -0.763
10 | GGAGUUGCUGUGUAUGACATT against Hspa1a | inactive: -1.41
11 | GCACCAAGCGUGUAAAAACTT against Mterf1a | inactive: 0.926
12 | GCAGGGAUCUGCUAAGCUATT against Hey1 | inactive: -0.953
13 | GGGCCUGUGGAAUUUGUUCTT against Acad11 | inactive: 1.6
14 | GGCAGAGAUAACCUUUAAATT against Sphk1 | inactive: 0.488
15 | GGCAAGCUGUAAAAGAUGCTT against Noc3l | active: 3.32
16 | GUACAUGCCCUUUGAACAUTT against Clcn1 | inactive: -0.826
17 | GGACGAUCGAUCGUUAACUTT against Ier5 | inactive: 0.639
18 | GGAAACAUCUUGUUGAAGATT against BC106179 | inactive: 0.361
19 | GGAACAAAUAAAUCAGGGATT against Smc6 | inactive: 0.608
20 | GGAUCUUUUUGUUUUUCCUTT against Commd8 | inactive: 0.752
21 | GGCAUGUAGAGGACUAAUGTT against Cldn10 | inactive: 0.706
22 | GGAAUCAAAUGGCGUAGGUTT against Med13l | inactive: 0.0663
23 | GGCAUGAUUGUUUUGAUCCTT against Olfr1500 | inactive: -0.26

Row | Sequence | z-score
24 | GGACUCAUUGACUUCAUCATT against Atg12 | inactive: -1.8
25 | CCUACUCAAGUACCCUAAATT against Zfp59 | inactive: -0.356
26 | CCAGAAACUUAACAACGACTT against Bpgm | inactive: 0.534
27 | GCCGUCUACCCUGAUAACATT against Cp | inactive: 0.67
28 | GCUGAUGGCGUACAUUGAATT against Fut10 | inactive: -1.38
29 | GCUUGGUGAGACUUUAACCTT against Nhlh2 | inactive: 0.179
30 | GGGCCACAGGAUCUCACUUTT against 1700009J07Rik | inactive: -1.88
31 | GCUCAAGGCUAAGAUCAUUTT against Ttc41 | inactive: -0.949
32 | GCUUCAAAACAAACCCUUGTT against Parp11 | inactive: -1.58
33 | GGAUUUUUACAUUGAGUCUTT against Cdca5 | inactive: -1.88
34 | UUUGCCGGGUUCCCAAAAGTT against Bud31 | inactive: 0.388
35 | GGAGCAUCAUUAUUCUGCATT against Gm527 | inactive: -0.0903
36 | GGCAAUUGGCUUAAACACATT against Serpinb9c | inactive: -1.35
37 | CGGCUACGAGUGUGAACUGTT against Fgf7 | inactive: 0.557
38 | GGAAGAUGACAAGAUCUAUTT against Rnf113a1 | inactive: 0.782
39 | GUGUGAACAGAGGCAGAAATT against Xlr3a | active: -2.46
40 | GGUGGACUUCAACCUGAUUTT against Nodal | inactive: 0.22
41 | GGCUUAUAUCUGAUUGAUGTT against Rom1 | inactive: -1.17
42 | GGAGGUUUAUAAAAUCGACTT against Tgfb2 | inactive: 1.14
43 | GGUGAAGCAGUUUGACUUCTT against Rbm18 | inactive: 0.0154
44 | GCCGUAUGGCAGGUAUUUUTT against Tmem266 | active: 3.27
45 | GGUAUUGAAUACAGGAAUUTT against Csnk1g3 | inactive: 1.33
46 | GGAGCAGAUUAAGUGCCUGTT against Krt82 | inactive: 0.247

Row | Sequence | z-score
47 | CCAAUAUCUCCAAAUAGAATT against Atp8b1 | inactive: -0.974
48 | GGGCUUAUAAUAGAAGUCUTT against Dpy19l3 | inactive: -0.138
49 | GGCUCAAGUUUGGAGUUUUTT against 2410137M14Rik | inactive: 0.501
50 | CCUCUAAAUCAAUGAGACATT against Zfp30 | inactive: 1.91
51 | CCAGUGUUGGUAACAAUAUTT against Stat4 | inactive: 0.0489
52 | GGUGAAGUCCCAGCUUGAATT against Cstb | inactive: -0.509
53 | GGAUUUAGCCAAUCAAUCUTT against Cdc14b | inactive: -0.872
54 | GGAAAUCCAUGAGAAGGUGTT against Ctbp2 | inactive: 0.732
55 | GGCUGAAUGACUGCACUGGTT against Vamp5 | inactive: -1.03
56 | GGAUGUGGAUGCUUACACCTT against Cdc23 | inactive: 0.0904
57 | GGAAAUUCUGAGGAAGAUUTT against Olfr744 | inactive: -0.844
58 | GCACUUAUCGACUAUUUCATT against Aff3 | inactive: -1.06
59 | CCUCUCUACAUAAAGUGCATT against Tmem174 | inactive: -0.651
60 | GGAACACACACUCUGGAAUTT against Tmem239 | inactive: -1.17
61 | GGCCUGAAAUAUAUGCUGGTT against Cst7 | inactive: -1.33
62 | GGGCCAAUAAAGCAACUGCTT against Laptm5 | inactive: 0.704
63 | GGAGAAGAAGAAAAGAACATT against Pom121 | inactive: 1.02
64 | GGUAGAAUCCGGUUACCACTT against Tox | inactive: 0.704
65 | CCUCUUGGCCUCCUUUGAUTT against Tas2r143 | inactive: -0.984
66 | GUGGACAUCCUCUCUGUCATT against Tmem54 | active: -2.23
67 | CCUAGAUGACACUUGGGUGTT against Nup35 | inactive: -1.4
68 | GGGAGACUUUGUACGGAAGTT against Gars | inactive: 1.89

Copied from above: nos. 66 to 68
Row | Sequence | z-score
66 | GUGGACAUCCUCUCUGUCATT against Tmem54 | active: -2.23
67 | CCUAGAUGACACUUGGGUGTT against Nup35 | inactive: -1.4
68 | GGGAGACUUUGUACGGAAGTT against Gars | inactive: 1.89
